Measurements from article doi:10.1101/2023.03.19.533321.
No constants are given. Whether binding was seen depends on the method and setting. In cells and extracts the contact can be indirect. Some results given as binding are weak or reduced against the parent protein; the word gives no strength. Tags and fused reporters may be left off the sequences shown.

What was measured:
[1] = target: T1, MCA-II-a-tagRFP expressed from RPS5apro in Arabidopsis (Arabidopsis thaliana) (UniProt O64517); assay: FRET or BRET
T1 sequence: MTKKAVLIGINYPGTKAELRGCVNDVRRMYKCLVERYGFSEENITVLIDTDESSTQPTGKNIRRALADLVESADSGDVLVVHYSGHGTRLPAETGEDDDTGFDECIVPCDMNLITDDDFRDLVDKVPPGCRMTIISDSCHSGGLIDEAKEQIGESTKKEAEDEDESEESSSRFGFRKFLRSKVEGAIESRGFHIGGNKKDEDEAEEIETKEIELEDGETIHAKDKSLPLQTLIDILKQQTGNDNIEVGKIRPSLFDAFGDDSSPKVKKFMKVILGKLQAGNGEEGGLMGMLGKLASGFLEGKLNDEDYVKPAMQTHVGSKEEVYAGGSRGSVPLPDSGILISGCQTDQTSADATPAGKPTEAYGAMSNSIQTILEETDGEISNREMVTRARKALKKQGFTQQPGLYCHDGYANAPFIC

[2] = target: T1, MCA-II-a-tagRFP expressed from RPS5apro in Arabidopsis (Arabidopsis thaliana); assay: proximity ligation

binding [1]: binds
binding [2]: binds
B1: PUX10-GFP, ubiquitination regulatory X (UBX) domain-containing 10, expressed from PUX10pro in Arabidopsis (protein, UniProt Q9M0N1 1-480)
chain: MVDTVDKLGYFQAITGLEDADLCTEILQAHGWDLELAISSFTSSDQDASSSAVDGGGNNRDHDHNNATVTPDYPPRGIVDDTELVMRDDGGGNRGPGVAWRIITLPISIVSGSLGLVSGAIGLGIWAAGGVLSYSLGMLGFRSGRGGGSESARLVSVSSAVGEAMEFVALFDRDYGSNNAFKIDFVVEGFMDALQRSRSSFKLLFVYLHSPDHPDTPVFCGGTLCNEAVVAFVNENFVSWGGSIRSSEGFKMSNSLKASRFPFCAVVMPAANQRIALLQQVEGPKSPEEMLAILQRIVEDSSPTLVTARVEAEERRTNLRLREEQDAAYRAALEADQAREQQRQEEKERLEREAAEAERKLKEEEEARERAAREAEERQAARVRMRQEKALALGEEPEKGPDVTQVLVRFPNGERKGRMFKSETKIQTLYDYVDSLGLLDTEEYSLITNFPRTVYGRDKESMSLKDAGLHPQASLFIEIN
